# Measurements published in US20200270294A1, “IMMUNOSTIMULATORY ADJUVANTS AND USES THEREOF” (TURUN YLIOPISTO, priority 2015, published 2020).
# Some results were stated once for a whole list of compounds, not compound by compound. At least one compound was matched to its structure with a doubt left.
# System: birch-induced production of IL-4 in PBMC
# Assay: Birch allergen (Bet v) induced IL-4 production in PBMC cultures of birch allergic subjects
# Assay type: cell-based, human
# Settings: 1, 10, 100 μg/ml, Bet v 50 μg/ml
# Description: During pollen season, 14 adult birch allergic subjects with allergic rhinoconjunctivitis (12 females and two males) were enrolled in the study (mean age 42.5 years, SD 12.4 years; mean birch-specific IgE (Immunocap, Thermo Fisher Scientific Phadia, Uppsala, Sweden) 36.1 kU/1, SD 31.5 kU/1). They were selected for the study from an earlier cohort based on good birch induced IL-4 responses during pollen season. All samples were taken after informed consent. The study was approved by the local ethics committee.
# Peripheral blood mononuclear cells (PBMC) were isolated by Ficoll-Paque density gradient centrifugation (Ficoll-Paque PLUS, GE Healthcare BioSciences AB, Uppsala, Sweden) from heparinized blood samples from study subjects during pollen season. […]
# The cytokines IL-4 and TNF in supernatants were measured with highsensitivity human cytokine Lincoplex kits (LINCO Research, St. Charles, Mo., USA). […]
# Wilcoxon's Signed Rank test was used to test statistical significance in PBMC experiments. […] Data are expressed as mean±SEM and P-values of <0.05 are considered statistically significant.
smiles,measurement,value
"CC(=O)OC[C@H]1O[C@@H](O[C@@H]2[C@@H](OCCCn3cc(COCC(COCc4cn(CCCO[C@H]5O[C@H](COC(C)=O)[C@@H](OC(C)=O)[C@H](OC(C)=O)[C@@H]5O[C@@H]5O[C@H](COC(C)=O)[C@@H](OC(C)=O)[C@H](OC(C)=O)[C@@H]5OC(C)=O)nn4)OCc4cn(CCCO[C@H]5O[C@H](COC(C)=O)[C@@H](OC(C)=O)[C@H](OC(C)=O)[C@@H]5O[C@@H]5O[C@H](COC(C)=O)[C@@H](OC(C)=O)[C@H](OC(C)=O)[C@@H]5OC(C)=O)nn4)nn3)O[C@H](COC(C)=O)[C@@H](OC(C)=O)[C@@H]2OC(C)=O)[C@@H](OC(C)=O)[C@@H](OC(C)=O)[C@@H]1OC(C)=O (stereo partly drawn) [compound 2, 1,2,3-tris[1-(3-{O-(2,3,4,6-tetra-O-acetyl-β-D-mannopyranosyl)-(1-+2)-3,4,6-tri-O-acetyl-α-D-mannopyranosyloxy}propyl)-4-methyloxy-1,2,3-triazolyl]propane]",dose-response curves of suppression of IL-4,Dose-response curves of suppression were seen
